Experimental data as given in PubChem BioAssay (NCATS).
Inconclusive results, whose numbers are uncertain, are shown with a selection of clear calls. For some assays here: Where the call is inconclusive, the potency comes from a doubtful curve fit. Active and inactive are the calls of the source. Calls follow the shape of the dose curve; as a rule, active = well fitted curve in the direction sought with a large enough effect; inconclusive = small, poorly fitted or top-dose-only effect, or another doubt; inactive = no such curve, though single readings can be large; an effect the other way counts as inactive or inconclusive.

How the values were obtained:
[1] = Quantitative High-Throughput drug screen in 47 multiple myeloma cell lines against the NCATS MIPE library collection: KMS26_JCRB cell viability assay (AID 1918975); details: KMS26 myeloma cells viability, CellTiter-Glo ATP, 48 h; viability (% of DMSO): at 45.8 µM (top of the series); also: nearly all actives have a fitted effect of over 45% in size;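 as to viability (% of DMSO): 100% = DMSO-treated wells and 0% = wells with media only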
In short: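 Inhibition of cell viability is measured here. Each line was plated at 500 cells per well, treated with MIPE 4.0 drugs, kept 48 hours at 37C, then assayed for ATP content by CellTiter-Glo luminescence.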

[2] = Quantitative High-Throughput drug screen in 47 multiple myeloma cell lines against the NCATS MIPE library collection: MMM1_PLB cell viability assay (AID 1918976); also: nearly all actives have a fitted effect of over 35% in size
In short: (§1)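 MIPE 4.0 approved/investigational drugs; 500 cells/well; 48 h 37 °C humidified 5% CO2; CTG luminescence readout; DMSO = 100%, media = 0% viability.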

[3] = Quantitative High-Throughput drug screen in 47 multiple myeloma cell lines against the NCATS MIPE library collection: MOLP8_DSMZ cell viability assay (AID 1918977); details: MOLP8 myeloma viability, CellTiter-Glo ATP luminescence, 48 h; viability (% of control): at 45.8 µM (top of the series); also: nearly all actives have a fitted effect of over 45% in size
In short: as §1

[4] = Quantitative High-Throughput drug screen in 47 multiple myeloma cell lines against the NCATS MIPE library collection: OCIMY1_PLB cell viability assay (AID 1918979); details: OCI-MY1 myeloma viability, CellTiter-Glo ATP, 48 h; viability: at 45.8 µM (top of the series) unless noted; also: nearly all actives have a fitted effect of over 35% in size;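 as to viability: 100% = DMSO-only wells and 0% = cell-free media-only wells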
In short: as §1

[5] = Quantitative High-Throughput drug screen in 47 multiple myeloma cell lines against the NCATS MIPE library collection: MM1R_ATCC cell viability assay (AID 1918981); also: nearly all actives have a fitted effect of over 35% in size
In short: as §1

[6] = Quantitative High-Throughput drug screen in 47 multiple myeloma cell lines against the NCATS MIPE library collection: LP1_DSMZ cell viability assay (AID 1918982); details: LP1 myeloma viability, CellTiter-Glo ATP luminescence, 48 h; viability (% of control): at 45.8 µM (top of the series); also: nearly all actives have a fitted effect of over 35% in size
In short: as §1

[7] = Quantitative High-Throughput drug screen in 47 multiple myeloma cell lines against the NCATS MIPE library collection: KMS28PE_JCRB cell viability assay (AID 1918983); also: nearly all actives have a fitted effect of over 35% in size
In short: as §1

[8] = Quantitative High-Throughput drug screen in 47 multiple myeloma cell lines against the NCATS MIPE library collection: L363_DSMZ cell viability assay (AID 1918984); details: L363 myeloma viability, CellTiter-Glo ATP luminescence, 48 h; viability (% of control): at 45.8 µM (top of the series); also: nearly all actives have a fitted effect of over 40% in size
In short: as §1

[9] = Quantitative High-Throughput drug screen in 47 multiple myeloma cell lines against the NCATS MIPE library collection: KMS34_JCRB cell viability assay (AID 1918985); details: KMS34 myeloma viability, CellTiter-Glo ATP luminescence, 48 h; viability, percent of control: at 45.8 µM (top of the series); also: nearly all actives have a fitted effect of over 40% in size
In short: as §1

[10] = Quantitative High-Throughput drug screen in 47 multiple myeloma cell lines against the NCATS MIPE library collection: OCIMY7_PLB cell viability assay (AID 1918987); details: OCI-MY7 myeloma viability, CellTiter-Glo ATP, 48 h; viability (% of DMSO): at 45.8 µM (top of the series); also: nearly all actives have a fitted effect of over 65% in size
In short: as §1

[11] = Quantitative High-Throughput drug screen in 47 multiple myeloma cell lines against the NCATS MIPE library collection: OPM1_PLB cell viability assay (AID 1918989); also: nearly all actives have a fitted effect of over 40% in size
In short: as §1

[12] = Quantitative High-Throughput drug screen in 47 multiple myeloma cell lines against the NCATS MIPE library collection: SKMM1_PLB cell viability assay (AID 1919863); details: SKMM1 myeloma viability, CellTiter-Glo ATP, 48 h; viability: stronger effect = lower value; also: nearly all actives have a fitted effect of over 35% in size
In short: as §1

[13] = Quantitative High-Throughput drug screen in 47 multiple myeloma cell lines against the NCATS MIPE library collection: U266_ATCC cell viability assay (AID 1919864); details: U266 myeloma viability, CellTiter-Glo ATP luminescence, 48 h; viability (% of DMSO control): at 45.8 µM (top of the series); also: nearly all actives have a fitted effect of over 35% in size;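 as to viability (% of DMSO control): 0% = media-only wells without cells and 100% = DMSO-only wells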
In short: as §1

[14] = Quantitative High-Throughput drug screen in 47 multiple myeloma cell lines against the NCATS MIPE library collection: XG1_PLB cell viability assay (AID 1919866); details: CellTiter-Glo ATP, 48 h; viability: at 45.8 µM (top of the series); also: nearly all actives have a fitted effect of over 35% in size
In short: as §1

[15] = Quantitative High-Throughput drug screen in 47 multiple myeloma cell lines against the NCATS MIPE library collection: KMS21BM_JCRB cell viability assay (AID 1918974); details: ATP luminescence, 48 h; viability: at 45.8 µM (top of the series) unless noted
In short: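 Relative luminescence from CellTiter-Glo served as the viability signal, referenced to DMSO-treated (100%) and cell-free medium (0%) controls. Treatment lasted 48 hours at 37C with 500 cells per well.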

[16] = Quantitative High-Throughput drug screen in 47 multiple myeloma cell lines against the NCATS MIPE library collection: MM1S_ATCC cell viability assay (AID 1918980); also: nearly all actives have a fitted effect of over 45% in size
In short: as §1

[17] = Quantitative High-Throughput drug screen in 47 multiple myeloma cell lines against the NCATS MIPE library collection: OCIMY5_PLB cell viability assay (AID 1918988); details: OCI-MY5 myeloma viability, ATP luminescence, 48 h; viability, % of control: at 45.8 µM (top of the series); also: nearly all actives have a fitted effect of over 65% in size;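 as to viability, % of control: 100% = DMSO-treated wells and 0% = wells with media alone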
In short: as §1

[18] = Quantitative High-Throughput drug screen in 47 multiple myeloma cell lines against the NCATS MIPE library collection: XG6_PLB cell viability assay (AID 1919865); details: XG6 myeloma viability, CellTiter-Glo ATP luminescence, 48 h; viability (% of control): at 45.8 µM (top of the series); also: nearly all actives have a fitted effect of over 40% in size
In short: as §1

[19] = Quantitative High-Throughput drug screen in 47 multiple myeloma cell lines against the NCATS MIPE library collection: NCIH929_DSMZ cell viability assay (AID 1918978); also: nearly all actives have a fitted effect of over 35% in size
In short: as §1
Potency is read from the fitted curve at half-maximal effect.

## COCC(=O)NCC=Cc1ccc2ncnc(Nc3ccc(Oc4ccc(C)nc4)c(C)c3)c2c1
[1]
  Potency: inconclusive: 20.9 µM [cytotoxic, partial curve, poor fit]
[2]
  Potency: inconclusive: 20.9 µM [cytotoxic, partial curve, poor fit]
[3]
  Potency: inconclusive: 33.2 µM [cytotoxic, single point]
[4]
  Potency: inconclusive: 23.5 µM [cytotoxic, single point]
[5]
  Potency: inconclusive: 23.5 µM [cytotoxic, partial curve, poor fit]
[6]
  Potency: inconclusive: 20.9 µM [cytotoxic, partial curve, poor fit]
[7]
  Potency: inconclusive: 37.2 µM [cytotoxic, single point]
[8]
  Potency: active: 14.8 µM
[9]
  Potency: inconclusive: 26.4 µM [cytotoxic, single point]
[10]
  Potency: inconclusive: 14.8 µM [cytotoxic, partial curve, poor fit]
[11]
  Potency: active: 18.7 µM
[12]
  Potency: inconclusive: 0.059 µM [rising, full curve, poor fit]
[13]
  Potency: inconclusive: 16.6 µM [cytotoxic, partial curve, poor fit]
[14]
  Potency: active: 20.9 µM

## CCCCOc1c(C(=O)c2c(F)cc(C)cc2F)cnc2n[nH]cc12
[15]
  Potency: inconclusive: 3.72 µM [cytotoxic, full curve, poor fit]
[4]
  Potency: inconclusive: 9.35 µM [cytotoxic, partial curve]
[16]
  Potency: active: 2.09 µM
[6]
  Potency: active: 3.32 µM
[8]
  Potency: active: 3.32 µM
[9]
  Potency: active: 2.35 µM
[17]
  Potency: active: 4.18 µM

## O=C1c2cccc(O)c2C(=O)c2c(O)cc(CO)cc21
[1]
  Potency: inactive
[3]
  Potency: inconclusive: 20.9 µM [cytotoxic, partial curve]
[16]
  Potency: inactive
[6]
  Potency: active: 16.6 µM
[8]
  Potency: inconclusive: 0.0047 µM [cytotoxic, full curve, poor fit]
[9]
  Potency: inconclusive: 11.8 µM [cytotoxic, partial curve, poor fit]
[10]
  Potency: inactive
[17]
  Potency: inconclusive: 37.2 µM [cytotoxic, single point]
[12]
  Potency: inconclusive: 29.6 µM [cytotoxic, partial curve, poor fit]
[18]
  Potency: inconclusive: 0.001 µM
[14]
  Potency: inactive

## Cn1cnc2c(F)c(Nc3ccc(Br)cc3F)c(C(=O)NOCCO)cc21
[1]
  Potency: inconclusive: 0.0033 µM [cytotoxic, full curve, poor fit]
[2]
  Potency: inconclusive: 0.264 µM [rising, full curve, poor fit]
[19]
  Potency: inconclusive: 0.526 µM [cytotoxic, partial curve]
[16]
  Potency: inconclusive: 0.0033 µM [rising, full curve, poor fit]
[5]
  Potency: inconclusive: 0.0059 µM [cytotoxic, full curve, poor fit]
[7]
  Potency: inactive
[8]
  Potency: inconclusive: 0.418 µM [cytotoxic, full curve, poor fit]
[9]
  Potency: inconclusive: 0.0059 µM [cytotoxic, full curve, poor fit]
[10]
  Potency: inconclusive: 0.0264 µM [cytotoxic, full curve, poor fit]
[17]
  Potency: inactive
[12]
  viability: inactive: 115%
[13]
  Potency: inactive
[14]
  Potency: inconclusive: 0.166 µM [cytotoxic, full curve, poor fit]

## COc1nc(N)nc2c1ncn2[C@@H]1O[C@H](CO)[C@@H](O)[C@@H]1O
[15]
  Potency: inconclusive: 33.2 µM [rising, partial curve]
[4]
  Potency: inactive
[16]
  Potency: inconclusive: 18.7 µM [cytotoxic, partial curve, poor fit]
[6]
  Potency: inactive
[8]
  Potency: inactive
[9]
  Potency: inconclusive: 18.7 µM [cytotoxic, partial curve, poor fit]
[10]
  Potency: inconclusive: 0.0015 µM [rising, full curve, poor fit]
[17]
  Potency: inactive
[11]
  Potency: inactive
[12]
  viability: inactive: 124%
[13]
  Potency: active: 16.6 µM

## Clc1ccc(C2(c3ccc(-c4cn[nH]c4)cc3)CCNCC2)cc1
[15]
  Potency: inconclusive: 20.9 µM [cytotoxic, partial curve, poor fit]
[4]
  Potency: active: 23.5 µM
[5]
  Potency: active: 10.5 µM
[8]
  Potency: active: 2.35 µM
[9]
  Potency: inconclusive: 23.5 µM [cytotoxic, partial curve, poor fit]
[11]
  Potency: active: 2.35 µM
[12]
  Potency: inconclusive: 18.7 µM [cytotoxic, partial curve, poor fit]
[13]
  Potency: inconclusive: 33.2 µM [cytotoxic, single point]
[18]
  Potency: active: 3.72 µM

## CC(C)(N)c1ccc(-c2nc3ccccc3nc2-c2ccccc2)cc1
[15]
  Potency: active: 5.26 µM
[3]
  Potency: inconclusive: 37.2 µM [cytotoxic, single point]
[5]
  Potency: active: 26.4 µM
[9]
  Potency: inconclusive: 26.4 µM [cytotoxic, partial curve, poor fit]
[17]
  Potency: active: 23.5 µM
[12]
  Potency: inconclusive: 37.2 µM [cytotoxic, partial curve, poor fit]
